Among all 580,000 compounds or so, about 6,100 (1.1%) were called active. The shares of active, inactive and inconclusive entries below differ from those in the screen. Calls follow the shape of the dose curve; as a rule, active = well fitted inhibition curve with a large enough effect; inconclusive = small, poorly fitted or top-dose-only effect, or another doubt; inactive = no such curve, though single readings can be large or run the other way. Where the call is inconclusive, the potency comes from a doubtful curve fit.
biological target: Polyunsaturated fatty acid lipoxygenase ALOX12 (Homo sapiens) (UniProt P18054); assay: Primary qHTS assay for inhibitors of human arachidonate 12S-lipoxygenase (ALOX12): Round 2; settings: purified 12hLO, xylenol orange hydroperoxide absorbance; activity change, negative = inhibition: at 108 µM (top of the series) unless noted
Summary of the method: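 Purified human 12hLO at 150 nM in 25 mM Hepes, 0.01% Triton X-100, pH 7.0, preincubated 15 min at room temperature with compound. Reaction started with 40 uM arachidonic acid, 30 min at room temperature. Hydroperoxide measured by Fe-xylenol orange, 573/405 nm absorbance ratio.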
% is scaled to controls: 0 for no effect and ±100 for the full control effect; potency is read from the fitted curve at half-maximal effect.

Protein sequences, listed by entry. Tags and fused reporters are not part of them.
UniProt P18054, whole entry, looked up: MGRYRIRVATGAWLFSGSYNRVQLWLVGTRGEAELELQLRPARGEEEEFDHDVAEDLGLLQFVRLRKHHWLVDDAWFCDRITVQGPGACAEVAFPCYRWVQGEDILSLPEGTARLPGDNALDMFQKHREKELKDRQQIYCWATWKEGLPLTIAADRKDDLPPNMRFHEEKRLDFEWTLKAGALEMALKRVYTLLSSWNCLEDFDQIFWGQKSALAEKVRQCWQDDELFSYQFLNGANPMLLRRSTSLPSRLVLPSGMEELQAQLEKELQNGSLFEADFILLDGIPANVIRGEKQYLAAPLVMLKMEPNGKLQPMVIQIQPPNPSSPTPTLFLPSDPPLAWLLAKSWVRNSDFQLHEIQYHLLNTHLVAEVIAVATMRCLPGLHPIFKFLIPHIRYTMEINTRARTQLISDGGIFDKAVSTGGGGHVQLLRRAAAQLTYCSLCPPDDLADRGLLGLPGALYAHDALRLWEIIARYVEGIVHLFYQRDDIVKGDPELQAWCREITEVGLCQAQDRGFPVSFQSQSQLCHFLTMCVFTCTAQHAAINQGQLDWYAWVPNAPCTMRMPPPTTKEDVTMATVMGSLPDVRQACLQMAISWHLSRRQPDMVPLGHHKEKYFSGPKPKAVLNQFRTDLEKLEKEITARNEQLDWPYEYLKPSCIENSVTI

Compound	activity change, negative = inhibition	Potency
CCOC(=O)c1ccc2[nH]c3c(c2c1)CCCC3O (centres undefined)	inactive: -1.34%	
COc1ccc(OCCn2ccnc2C)cc1		inconclusive: 1.58 µM [inhibitor, full curve, poor fit]
CC1(c2ccccc2)N(Cc2ncccn2)C(=O)OC12CCN(C(=O)Cc1ccc3c(c1)OCO3)CC2 (centres undefined)	inactive: -18.6%	
COc1ccc(/C(O)=C2/C(=O)C(=O)N(CC3CCCO3)C2c2ccc(OC)c(OC)c2)cc1 (centres undefined)		active: 17.8 µM
NS(=O)(=O)c1ccc(NC(=O)CSc2nc3c(cnn3-c3ccccn3)c(=O)[nH]2)cc1		inconclusive: 4.47 µM [inhibitor, full curve, poor fit]
O=C(/C=C/c1ccccc1)Oc1cccc(C(=S)N2CCOCC2)c1	inactive: -10%	
COC(C(=O)NC1CCCCCCC1)c1ccccc1 (centres undefined)	inactive: 0.44%	
COC(=O)CC1C(=O)NCCN1C(=O)c1ccccc1 (centres undefined)		inconclusive: 56.2 µM [inhibitor, partial curve, poor fit]
CCCc1nn(C)c2c1C(c1ccncc1)C(C#N)=C(N)O2 (centres undefined)	inactive: 0%	
COC(=O)c1ccccc1NC(=O)Cn1c(=O)cc(C)c2c(C)nn(-c3cccc(Cl)c3C)c21		inconclusive: 126 µM [inhibitor, partial curve, poor fit]
C/C(=N\Nc1nc2c(s1)CCCC2)c1ccc(Cl)cc1		active: 39.8 µM
Cc1ccc(-n2c(N)c(C#N)c(-c3ccccc3)c(C#N)c2=O)cc1	inactive: 0%	
Cc1ccc(NC(=O)CC2CCCN(c3cn[nH]c(=O)c3)C2)cc1F (centres undefined)		inconclusive: 35.5 µM [inhibitor, partial curve, poor fit]
C/C(=N\NC(N)=S)C1C2C3CC4C5CC(C42)C1C53 (centres undefined)		active: 17.8 µM
CCc1ccc(C(=O)NCc2cccc(C)c2)cc1	inactive: -16.9%	
CCCCNC(=S)N1CCN(c2ccccc2Cl)CC1	inactive: -27.3%	
N#CCSc1nnc(-c2ccccc2)n1-c1ccc(F)cc1F		inconclusive: 2 µM [inhibitor, partial curve, poor fit]
C(=C\c1ccccc1)/C=N/Nc1nc(N2CCOCC2)nc(N2CCOCC2)n1		inconclusive: 126 µM [inhibitor, single point]
Cc1noc(C)c1-c1nc(CSc2ccc(Cl)cc2)no1		inconclusive: 79.4 µM [inhibitor, single point]
CCn1c(=N)n(CC(=O)c2ccco2)c2ccccc21		inconclusive: 0.316 µM [inhibitor, full curve, poor fit]
COC(=O)CC(c1ccc(OC)c(OC)c1)c1ccc(OC)c(OC)c1	inactive: 0%	
c1ccc(-c2ccc(N3CC4(CCNCC4)C3)cc2)cc1		inconclusive: 28.2 µM [inhibitor, partial curve, poor fit]
Cc1ccc(NC(=O)CN(C)C(=O)Cc2c(Cl)cccc2Cl)cc1	inactive: -20.3%	
O=C(CC1Nc2cccc3cccc(c23)NC1=O)Nc1ccc(F)cc1 (centres undefined)		inconclusive: 56.2 µM [inhibitor, partial curve, poor fit]
Oc1ccc(Cl)cc1N=Cc1sc2ccccc2c1Cl		inconclusive: 31.6 µM [inhibitor, partial curve, poor fit]

Two entries drawn at random from those above:
Compound	activity change, negative = inhibition	Potency
COC(=O)CC1C(=O)NCCN1C(=O)c1ccccc1 (centres undefined)		inconclusive: 56.2 µM [inhibitor, partial curve, poor fit]
C(=C\c1ccccc1)/C=N/Nc1nc(N2CCOCC2)nc(N2CCOCC2)n1		inconclusive: 126 µM [inhibitor, single point]

Further results

Compound	activity change, negative = inhibition	Potency
COC(=O)c1c(C)[nH]c(C(=O)/C=C/c2cccc(Cl)c2)c1C	inactive: -19.7%	
Nc1nccnc1C(=O)NCCc1cccs1		inconclusive: 100 µM [inhibitor, single point]
COc1ccc(B(O)O)c(CN2CCN(C(=O)OC(C)(C)C)CC2)c1	inactive: -7.56%	
CC(=O)N1C[C@H]2CON(C)[C@H]2C[C@H]1c1cccc(-c2ccccc2C)c1		inconclusive: 112 µM [inhibitor, single point]
O=C1CC(N(CCc2ccccc2)C(=S)Nc2ccccc2)C(=O)N1c1ccc(F)cc1 (centres undefined)	inactive: 0%	
O=C(c1ccc(F)cc1)N1CCC(OCC2CC2)C1 (centres undefined)	inactive: 3.03%	
COc1ccc(C/C(C)=N/NS(=O)(=O)c2ccc(Br)cc2)cc1		inconclusive: 39.8 µM [inhibitor, partial curve, poor fit]
N#Cc1cccc(NC(=O)c2cc(C3CCCCN3S(=O)(=O)c3cccc4cccnc34)on2)c1 (centres undefined)	inactive: -28.6%	
C=CCn1c(-c2cc(-c3ccc(C)cc3)nc3ccccc23)n[nH]c1=S		inconclusive: 44.7 µM [inhibitor, partial curve, poor fit]
COc1ccc(/C=C2/C(=O)N(Cc3ccccc3)N=C2C)cc1	inactive: -37.7%	
O=C(CSC1=NCCS1)Nc1nc2c(s1)CCCC2		inconclusive: 70.8 µM [inhibitor, partial curve, poor fit]
COc1cc(OC)c(-c2c(-c3ccccc3)ncn2CCF)cc1OC	inactive: -1.31%	
O=C(O)c1ccc2c(=O)n(-c3ccc(F)c(Cl)c3)c(=S)[nH]c2c1		inconclusive: 44.7 µM [inhibitor, partial curve, poor fit]
CN(C)c1ccc(/C=N/NC(=O)CCCO)cc1	inactive: 22.8%	
O=C(Oc1ccc2c(=O)c(Oc3ccc(F)cc3)coc2c1)c1ccccc1F		inconclusive: 112 µM [inhibitor, partial curve, poor fit]
CCOc1ccc2[nH]c3c(NCCN(C)C)ncnc3c2c1	inactive: 13.8%	
CCCCc1cc(=O)oc2cc(C)cc(OCC(=O)N3C[C@H]4C[C@@H](C3)c3cccc(=O)n3C4)c12	inactive: -3.94%	
CCC(C)NC(=O)CN1C(=O)NC2NC(=O)NC21 (centres undefined)	inactive: -2.76%	
CC(C)n1ccnc1CN1CCCC12CCN(c1ccc(C(F)(F)F)cn1)CC2	inactive: 56.2%	
CCC(C)c1ccc(NC(=O)CSc2nnc(-c3cc(-c4ccc(F)cc4)n[nH]3)n2N)cc1 (centres undefined)		inconclusive: 39.8 µM [inhibitor, partial curve, poor fit]
CCOCCCNC(=O)c1ccc(NC(=O)C23CC4CC(CC(C4)C2)C3)cc1	inactive: -14.8%	
COc1ccccc1-n1c(=O)oc2ccc(Cl)cc2c1=O		inconclusive: 56.2 µM [inhibitor, partial curve, poor fit]
CC(C)N(C(C)C)S(=O)(=O)c1ccc(N2CCc3ccccc3C2)nc1		inconclusive: 44.7 µM [inhibitor, partial curve]
S=c1[nH]nc(-c2ccc3ccccc3n2)n1-c1ccc2c(c1)OCCO2	inactive: 0%	

Reference: PubChem BioAssay AID1671190 (National Center for Advancing Translational Sciences (NCATS), 2021)
